These are yes or no findings as the source states them, for the method shown. A result given as binding can be weak or reduced; the word gives no strength.
Columns and labels:
human GPC3 (Glypican-3) [1] = target: T1, human GPC3 (Glypican-3) (human, UniProt P51654 25-580); experiment: FACS on HepG2 cells
human GPC3 (Glypican-3) [2] = target: T1, human GPC3 (Glypican-3); experiment: FACS on GPC3-CHO-K1, HepG2 and Huh-7 cells

Protein sequences, listed by entry. Tags and fused reporters are not part of them. Lines headed by an entry give the natural chain unless they say otherwise; changes in a name come on top.
UniProt P51654: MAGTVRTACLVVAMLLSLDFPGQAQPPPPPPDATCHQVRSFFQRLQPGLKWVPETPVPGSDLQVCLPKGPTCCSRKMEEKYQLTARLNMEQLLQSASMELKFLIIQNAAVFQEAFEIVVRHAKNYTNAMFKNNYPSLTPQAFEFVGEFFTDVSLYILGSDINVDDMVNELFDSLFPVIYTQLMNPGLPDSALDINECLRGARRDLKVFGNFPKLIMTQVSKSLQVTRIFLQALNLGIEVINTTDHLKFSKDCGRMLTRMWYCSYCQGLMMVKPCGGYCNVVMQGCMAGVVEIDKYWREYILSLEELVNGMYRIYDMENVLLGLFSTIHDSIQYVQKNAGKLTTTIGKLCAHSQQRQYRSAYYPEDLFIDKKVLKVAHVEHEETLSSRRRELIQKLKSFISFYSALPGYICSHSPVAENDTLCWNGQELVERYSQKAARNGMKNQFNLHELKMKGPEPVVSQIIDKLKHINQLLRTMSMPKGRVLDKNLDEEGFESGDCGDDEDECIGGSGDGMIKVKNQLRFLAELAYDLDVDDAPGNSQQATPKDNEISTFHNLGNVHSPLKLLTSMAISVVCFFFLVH

binding (human GPC3 (Glypican-3) [1]) | binding (human GPC3 (Glypican-3) [2]) | Binder
– | binds | Y035 CDRs with Hu 52H5D3B8-7 FRs (antibody, V domains shown, built here from the pieces; detected with anti-human IgG) VH: EVQLVQSGAEVKKPGASVKVSCKASGYTFTDYEMHWVRQAPGQGLEWMGAIHPGSGDTAYNQRFKGRVTMTADKSISTAYMELSRLRSDDTAVYYCTRFYSYAYWGQGTLVTVSS VL: DVVMTQTPLSLSVTPGQPASISCRSSQSLVHSNGNTYLQWYLQKPGQSPQLLIYKVSNRFSGVPDRFSGSGSGTDFTLKISRVEAEDVGVYYCSQSIYVPYTFGGGTKVEIK
– | binds | Hu 52H5D3B8-7 (antibody, human IgG1, kappa, V domains shown, also called humanized GPC3 antibody Hu 52H5D3B8-7) VH: EVQLVQSGAEVKKPGASVKVSCKASGYTFTDYEMHWVRQAPGQGLEWMGAIHPGSGGTAYNQKFKGRVTMTADKSISTAYMELSRLRSDDTAVYYCTRFYSYAYWGQGTLVTVSS VL: DVVMTQTPLSLSVTPGQPASISCRSSQSLVHSNGNTYLQWYLQKPGQSPQLLIYKVSNRFSGVPDRFSGSGSGTDFTLKISRVEAEDVGVYYCSQSIHVPYTFGGGTKVEIKR

The next lines start with the binder.

Binder | binding (human GPC3 (Glypican-3) [1]) | binding (human GPC3 (Glypican-3) [2])
GC33 antibody (Chugai Pharmaceutical) (antibody, V domains shown, Control antibody, prepared as in US 7919086 B2; Whole antibody; Detected with anti-human IgG) VH: QVQLVQSGAEVKKPGASVKVSCKASGYTFTDYEMHWVRQAPGQGLEWMGALDPKTGDTAYSQKFKGRVTLTADKSTSTAYMELSSLTSEDTAVYYCTRFYSYTYWGQGTLVTVSS VL: DVVMTQSPLSLPVTPGEPASISCRSSQSLVHSNGNTYLHWYLQKPGQSPQLLIYKVSNRFSGVPDRFSGSGSGTDFTLKISRVEAEDVGVYYCSQNTHVPPTFGQGTKLEIK | binds | binds
Hu 52H5D3B8-8 (antibody, human IgG1, kappa, V domains shown, also called humanized GPC3 antibody Hu 52H5D3B8-8) VH: EVQLVQSGAEVKKPGASVKVSCKASGYTFTDYEMHWVRQAPGQGLEWMGAIHPGSGGTAYNQKFKGRVTMTADKSISTAYMELSRLRSDDTAVYYCTRFYSYAYWGQGTLVTVSS VL: DVVMTQTPLSLSVTPGQPASISCRSSQSLVHSNGNTYLQWYLQKPGQSPQLLIYKVSNRFSGVPDRFSGSGSGTDFTLKISRVEAEDVGVYFCSQSIHVPYTFGGGTKVEIKR | binds | binds
